Results: US20160046716A1 (Dana-Farber, published 2016)
These are yes or no findings as the source states them, for the method shown. Some results given as binding are weak or reduced against the parent protein; the word gives no strength. For part of these data: Tags and fused reporters may be left off the sequences shown.

Legend:
[1] = target: T1, MICA on autologous tumor cells (CD33+CD34+ bone marrow cells of patient CM24002) (human) (UniProt Q29983); experiment: flow cytometry (figure legend)
T1 sequence (looked up): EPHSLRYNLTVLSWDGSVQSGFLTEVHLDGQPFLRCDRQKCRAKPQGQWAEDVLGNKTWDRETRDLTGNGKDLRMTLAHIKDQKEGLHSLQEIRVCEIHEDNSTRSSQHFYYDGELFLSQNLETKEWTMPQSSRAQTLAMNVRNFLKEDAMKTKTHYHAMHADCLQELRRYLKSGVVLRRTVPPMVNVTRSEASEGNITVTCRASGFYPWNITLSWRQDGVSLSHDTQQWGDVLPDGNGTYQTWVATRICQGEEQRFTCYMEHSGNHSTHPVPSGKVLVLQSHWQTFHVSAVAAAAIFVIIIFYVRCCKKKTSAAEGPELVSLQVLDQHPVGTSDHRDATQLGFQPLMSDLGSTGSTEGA

[2] = target: T2, MICA on human tumor cell lines (RPMI 8226, Xg-1, OVCAR3, U937, K028, 1792, 827, MCF7) (human) (UniProt Q29983); experiment: flow cytometry (figure legend)
T2 sequence (looked up): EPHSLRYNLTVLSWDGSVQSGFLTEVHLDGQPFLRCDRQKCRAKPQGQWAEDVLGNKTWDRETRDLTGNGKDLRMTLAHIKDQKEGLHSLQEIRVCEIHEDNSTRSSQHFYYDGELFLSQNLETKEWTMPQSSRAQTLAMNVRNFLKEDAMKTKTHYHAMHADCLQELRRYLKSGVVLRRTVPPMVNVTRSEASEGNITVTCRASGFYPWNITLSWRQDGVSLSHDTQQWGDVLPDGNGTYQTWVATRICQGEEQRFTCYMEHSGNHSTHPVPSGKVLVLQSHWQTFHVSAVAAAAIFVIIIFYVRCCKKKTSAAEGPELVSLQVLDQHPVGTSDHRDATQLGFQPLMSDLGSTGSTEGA

[3] = target: T2, MICA on human tumor cell lines (RPMI 8226, Xg-1, OVCAR3, U937, K028, 1792, 827, MCF7) (human); experiment: flow cytometry on tumor cell lines, directly conjugated antibody at 10 µg/ml
[4] = target: T1, MICA on autologous tumor cells (CD33+CD34+ bone marrow cells of patient CM24002) (human); experiment: flow cytometry on CD33+CD34+ tumor cells from bone marrow, antibody at 10 µg/ml
[5] = target: T3, Human MICA (Western blot, native or denatured) (human) (UniProt Q29983); experiment: Western blot after denaturing or non-denaturing PAGE
T3 sequence (looked up): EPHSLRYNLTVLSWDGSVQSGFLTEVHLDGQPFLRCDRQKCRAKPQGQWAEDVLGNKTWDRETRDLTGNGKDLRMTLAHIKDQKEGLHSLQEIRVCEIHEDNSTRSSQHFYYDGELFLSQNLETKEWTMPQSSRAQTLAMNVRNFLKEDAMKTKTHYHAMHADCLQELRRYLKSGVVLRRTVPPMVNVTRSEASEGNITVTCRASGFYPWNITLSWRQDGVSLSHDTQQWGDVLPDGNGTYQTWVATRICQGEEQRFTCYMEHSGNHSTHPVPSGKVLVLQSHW

[6] = target: T4, Human MICB (Western blot, native or denatured) (human) (UniProt Q29980); experiment: as above
T4 sequence (looked up): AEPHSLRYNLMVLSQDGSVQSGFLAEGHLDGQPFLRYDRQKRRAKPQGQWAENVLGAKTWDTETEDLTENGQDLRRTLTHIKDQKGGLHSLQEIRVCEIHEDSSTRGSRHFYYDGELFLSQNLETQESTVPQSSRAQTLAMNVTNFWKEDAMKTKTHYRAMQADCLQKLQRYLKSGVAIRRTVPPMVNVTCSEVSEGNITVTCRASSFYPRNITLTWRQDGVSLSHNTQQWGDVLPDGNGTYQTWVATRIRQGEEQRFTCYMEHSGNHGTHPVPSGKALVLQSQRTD

[7] = target: T5, MICA*009 reference sequence (overlapping peptide array spanning the extracellular domains) (human) (UniProt Q29983); experiment: overlapping peptide array, Cy5 anti-human IgG
T5 sequence: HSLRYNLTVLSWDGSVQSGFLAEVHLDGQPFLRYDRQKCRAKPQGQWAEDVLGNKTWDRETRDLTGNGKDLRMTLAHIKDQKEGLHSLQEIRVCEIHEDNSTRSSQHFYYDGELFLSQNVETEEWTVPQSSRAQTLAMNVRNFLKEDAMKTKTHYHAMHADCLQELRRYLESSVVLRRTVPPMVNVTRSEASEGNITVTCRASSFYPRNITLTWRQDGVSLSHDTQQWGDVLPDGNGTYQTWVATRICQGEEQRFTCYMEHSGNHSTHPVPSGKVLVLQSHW

[8] = target: T6, recombinant MICA*001 conjugated to Luminex beads (commercial kit) (human) (UniProt Q29983); experiment: Luminex bead assay (One Lambda kit), PE anti-human IgG secondary; bars assigned by their order in the legend box
T6 sequence (looked up): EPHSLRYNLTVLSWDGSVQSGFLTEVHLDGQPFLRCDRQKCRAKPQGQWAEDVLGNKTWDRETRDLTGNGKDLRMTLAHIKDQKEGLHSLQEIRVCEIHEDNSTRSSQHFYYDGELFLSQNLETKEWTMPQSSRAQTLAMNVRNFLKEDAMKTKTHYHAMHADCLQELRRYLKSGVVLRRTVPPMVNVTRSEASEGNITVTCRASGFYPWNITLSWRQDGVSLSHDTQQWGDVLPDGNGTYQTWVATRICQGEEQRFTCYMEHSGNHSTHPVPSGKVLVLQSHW

[9] = target: T7, MICA antigen (UniGene Hs.130838) with a C-terminal BirA tag (human) (UniProt Q29983); experiment: bead assays: MICA-coated Luminex beads and MICA-coated streptavidin beads by flow cytometry
T7 sequence: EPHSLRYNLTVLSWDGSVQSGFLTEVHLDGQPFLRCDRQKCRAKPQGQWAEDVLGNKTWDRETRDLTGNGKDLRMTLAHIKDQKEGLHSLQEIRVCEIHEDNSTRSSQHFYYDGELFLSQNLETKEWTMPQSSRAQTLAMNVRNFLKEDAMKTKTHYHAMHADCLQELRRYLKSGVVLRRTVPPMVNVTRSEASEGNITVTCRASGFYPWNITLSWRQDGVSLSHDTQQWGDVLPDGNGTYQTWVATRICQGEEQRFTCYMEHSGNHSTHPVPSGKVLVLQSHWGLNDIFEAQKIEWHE

[10] = target: T8, human MICA on transduced B16 melanoma cells (human) (UniProt Q29983); experiment: flow cytometry, antibody at 10 ug/ml (figure legend)
T8 sequence (looked up): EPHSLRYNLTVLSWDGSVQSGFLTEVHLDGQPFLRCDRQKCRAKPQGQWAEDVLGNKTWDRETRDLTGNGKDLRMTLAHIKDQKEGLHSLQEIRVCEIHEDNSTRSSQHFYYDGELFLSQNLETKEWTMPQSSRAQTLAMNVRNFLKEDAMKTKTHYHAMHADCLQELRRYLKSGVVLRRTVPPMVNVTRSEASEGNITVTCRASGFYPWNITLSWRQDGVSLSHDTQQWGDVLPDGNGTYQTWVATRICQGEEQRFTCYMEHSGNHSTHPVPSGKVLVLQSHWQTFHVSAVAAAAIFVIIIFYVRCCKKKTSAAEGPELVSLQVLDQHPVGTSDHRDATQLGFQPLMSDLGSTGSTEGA

Measured: binding

B1: CM24002 Ab2 (antibody, V domains shown)
VH: QVQLQESGPGLVEPSGTLSLTCTVSGGSISRSNWWSWVRQPPGEGLEWIGEIHHIGRSSYNPSLKSRVTMSVDKSQNQFSLRLTSVTAADTAVYYCAKNGYYAMDVWGQGTTVTVSS
VL: EIVLTQSPGTLSLSPGERATLSCRASQSVSSDFLAWYQQKPGQAPRLLIYATSFRATGISDRFSGSGSGTDFSLTINRLEPEDFAVYYCQHYRSSPPWYTFAQGTKLDMRRTVAAPSV
notes: also called anti-MICA antibody ID-6; antibody ID 6
binds: [1] | [2] | [3] | [4] | [5] | [6]

B2: CM33322 Ab11 (antibody, V domains shown)
VH: QVQLQESGPGLVKPSENLSLTCTVSDASMSDYHWSWIRQAAGKGLEWIGRMYSTGSPYYKPSLKGRVTMSIDTSKNQFSLKLASVTAADTAIYYCASGQHIGGWVPPDFWGQGTLVTVSS
VL: DIVMTQTPLSSPVTLGQPASISCRSSEGLVYSDGDTYLSWFHQRPGQPPRLLIYKISNRFSGVPDRFSGSGAGTDFTLKISRVEAEDVGVYYCMQATHFPWTFGQGTKVEVKR
notes: also called CM33322 mAb11; CM33322 11
binds: [7]

B3: MICA-Ab20 (antibody, V domains shown)
VH: QVQLQQWGAGLLKPSETLALTCAVSGGSFTDHYWSWIRQAPGKGLEWIGEINHSGVTNYNPSLKSRLTISVDTSKSQFSLRLTSVTAADTALYYCAKTGLYYDDVWGTFRPRGGFDSWGQGTLVTVSS
VL: DIVMTQSPDSLAVSLGERATINCKSSQSILYSSDNKNYLAWYQHKPGQPPKLLFYWASIRESGVPDRFSGGGSGTDFTLTISSLQAEDVAVYYCQQYYSPPCSFGQGTKLEIQ
notes: also called anti-MICA antibody ID-1; antibody ID 1
binds: [8] | [9]

B4: CM33322 Ab29 (antibody, V domains shown)
VH: EVQLLESGGGLVQPGGSLRLSCAASGFTFSSYGLTWIRQAPGKGLEWVSSISGSGNNTYYADSVKGRFTISRDKVKKTLYLQMDSLTVGDTAVYYCLGVGQGHGIPVIVSS
VL: DVVMTQSPLSLPVTLGQPASISCRSSQSLVHSDGNTYLNWFHQRPGQSPRRLIYKVSKRDSGVPDRFSGSGSGSDFTLKISRVEAEDVGIYYCMQGTHWPTFGQGTKVEIKRTVAA
binds: [2] | [3] | [10]
